# According to PubChem BioAssay AID2685 (National Center for Advancing Translational Sciences (NCATS), 2010):
# This is one part of the list. These are further read-outs of the screen, such as a control signal, another cell line or another target. No call is given for them. Most of these compounds were active or inconclusive in the main read-out, so they are no random draw. The note in brackets gives the kind of curve behind each potency; many fits are weak.
# Assay: qHTS Assay for Lipid Storage Modulators in Drosophila S3 Cells;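 on cell number change: cells counted by Cell Tracker Red CMTPX staining in the red channel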
# Conditions: BODIPY lipid droplet fluorescence, 18-24 h; for cell number change: measured here: cell count max response, cells fed with added oleic acid
# Summary of the method: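 Drosophila S3 cells loaded with oleic acid (400 uM, as added) and compounds at several concentrations; lipid droplets imaged by 488-nm laser-scanning cytometry, 500–530 nm intensity and object ratio to cell channel. Percent activity normalized to 20 uM Triacsin C.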
# [1] = measured here: lipid fluorescence (Fed channel) AC50, cells fed with added oleic acid
# [2] = measured here: cell number channel AC50, cells fed with added oleic acid
structure (smiles),measurement,setting,value
O=C(CSc1cn[nH]n1)Nc1nc2ccccc2s1,cell number change,,-2.63%
same,AC50,[1],"0.562 µM [falling, full curve]"
CCOC(=O)C1CCN(C(=S)Nc2cccc(C)c2)CC1,cell number change,,-84.1%
same,AC50,[2],"29.1 µM [falling, single point]"
CC(C)CCN1CCN(Cc2coc3ccccc3c2=O)CC1CCO (configuration not stated),cell number change,,19.8%
same,AC50,[1],"29.1 µM [rising, single point]"
O=C1NCCCC1C(=O)Nc1cccc(C(F)(F)F)c1 (configuration not stated),cell number change,,5.35%
same,AC50,[1],"0.82 µM [falling, full curve, poor fit]"
Cc1ccccc1C(=O)NNC(=O)/C=C/c1ccccc1,cell number change,,24.2%
same,AC50,[2],"0.0291 µM [rising, full curve, poor fit]"
CC1CCN(S(=O)(=O)c2ccc(C(=O)N3CCCC(C(F)(F)F)C3)cc2)CC1 (configuration not stated),cell number change,,6.83%
O=C(CCCn1c(=O)c2sccc2n(CC(=O)NCc2ccco2)c1=O)NCc1ccco1,AC50,[2],"2.06 µM [rising, partial curve]"
COc1ccc(-c2cc(N3C(=O)Nc4ccccc4N3O)n[nH]2)c(OC)c1,cell number change,,21.1%
same,AC50,[1],"13 µM [rising, single point]"
COc1cccc(N(CC(=O)N2CCN(C)CC2)S(=O)(=O)c2ccc(C)cc2)c1,cell number change,,0.487%
same,AC50,[1],"16.4 µM [falling, partial curve]"
COc1cccc(C(=O)CN2C3=NCCCN3c3ccccc32)c1,cell number change,,26.7%
same,AC50,[2],"4.11 µM [falling, single point]"
same,AC50,[1],"2.31 µM [rising, partial curve]"
CC(=O)c1cccc(Nc2nc(-c3ccccc3)nc3ccccc23)c1,cell number change,,18.2%
same,AC50,[1],"23.1 µM [falling, single point]"
CC(=O)Nc1cccc(NC(=O)C(=O)Nc2ccc3c(c2)N(C(=O)C2CC2)CCC3)c1,cell number change,,68.5%
same,AC50,[2],"14.6 µM [rising, partial curve]"
C[C@H](NC(=O)c1nc[nH]c1C(=O)N1CCNCC1)C(=O)OCc1ccccc1,cell number change,,-51.7%
same,AC50,[2],"4.11 µM [falling, partial curve]"
same,AC50,[1],"6.51 µM [falling, partial curve]"
COc1ccccc1CN1CC(C(=O)NCc2cccc(Cl)c2)CCC1=O (configuration not stated),cell number change,,-12.9%
CC(=O)Oc1ccc(C(=O)Cc2ccccn2)c(O)c1,cell number change,,27.9%
same,AC50,[2],"0.651 µM [rising, full curve]"
same,AC50,[1],"6.51 µM [rising, single point]"
CC(=O)N1CCCc2cc(S(=O)(=O)N3CCCC3)ccc21,cell number change,,-0.403%
CCCN1CC23C=CC(O2)C(C(=O)O)C3C1=O (configuration not stated),cell number change,,-15.8%
same,AC50,[1],"0.0731 µM [falling, full curve, poor fit]"
Cc1ccc(/C=N/NC(=O)c2cc(-c3ccncc3)nc3ccccc23)o1,cell number change,,-8.01%
CCc1ccc(NC(=O)Cn2cnc3sc(C)c(S(=O)(=O)N4CCOCC4)c3c2=O)cc1,cell number change,,-8.73%
same,AC50,[1],"29.1 µM [rising, single point]"
O=S(=O)(Cc1cc(Cl)nc(-c2ccccc2)n1)c1ccccc1,AC50,[1],"0.291 µM [rising, single point]"
O=C(Cc1n[nH]c(=O)c2ccccc12)NCc1ccccn1,cell number change,,0.255%
same,AC50,[1],"6.51 µM [falling, partial curve, poor fit]"
C=CCN(c1nc(C)cc(OC)n1)S(=O)(=O)c1ccc(C)cc1,cell number change,,2.2%
same,AC50,[1],"32.6 µM [falling, single point]"
Brc1ccc(-c2nc(-c3ccncc3)no2)o1,AC50,[2],"1.84 µM [rising, partial curve]"
COc1ccc(-c2csc(N=C(N)N)n2)cc1,AC50,[1],"6.51 µM [rising, single point]"
NC(=O)COC(=O)c1ccccc1Oc1ccccc1,cell number change,,23.8%
Cc1cc(C)c(N2C(=NC(=O)CCCC(=O)O)SC3CS(=O)(=O)CC32)c(C)c1 (configuration not stated),cell number change,,-12.4%
same,AC50,[1],"2.59 µM [falling, single point]"
O=C(CN1CCCCCC1)N/N=C/c1ccc2ccccc2c1,cell number change,,50.9%
same,AC50,[2],"14.6 µM [rising, partial curve, poor fit]"
COc1ccc2ccccc2c1/C=N/NC(=O)c1ccc(C)nc1,cell number change,,11.2%
same,AC50,[1],"2.06 µM [falling, partial curve]"
Cc1ccc(NC(=O)c2ccco2)c(NC(=O)C2CCCO2)c1 (configuration not stated),cell number change,,-46.2%
O=C(O)CCS(=O)(=O)c1nc(-c2cccs2)cc(C(F)(F)F)n1,cell number change,,-47.8%
same,AC50,[2],"32.6 µM [falling, single point]"
same,AC50,[1],"23.1 µM [falling, single point]"
Cc1cc(C)n(S(=O)(=O)c2cccc([N+](=O)[O-])c2)n1,cell number change,,-12.9%
same,AC50,[1],"29.1 µM [rising, single point]"
COc1ccc(-c2cc(C(=O)N3CCCC3)no2)cc1OC,cell number change,,1.3%
CC(C)[C@H](N)c1cn([C@@H](CO)C(=O)N2CCNCC2)nn1,cell number change,,9.29%
same,AC50,[1],"14.6 µM [rising, partial curve]"
COc1ccc(OCCNS(=O)(=O)c2ccc3oc4ccccc4c3c2)cc1,cell number change,,6.09%
CCn1cc(-c2cc(C(=O)O)c3ccccc3n2)c(C)n1,cell number change,,-10.6%
same,AC50,[1],"0.411 µM [rising, full curve, poor fit]"
O=C(CCCN1C(=O)[C@H]2CC=CC[C@H]2C1=O)NCc1nc(-c2ccc(Cl)cc2)no1,cell number change,,12.5%
same,AC50,[1],"6.51 µM [rising, single point]"
CSc1ccccc1C(=O)N1CCCC(CNC(=O)c2ccc(F)cc2)C1 (configuration not stated),cell number change,,-2.45%
COc1ccc(OCc2cc(C(=O)N(C)Cc3cc(C)no3)no2)c(Cl)c1,cell number change,,-15%
COc1ccc(C2(c3ccc(OC)cc3)NC(=O)N(CC(=O)Nc3ccc(C(=O)N(C)C)cc3)C2=O)cc1,cell number change,,-1.89%
same,AC50,[1],"29.1 µM [rising, single point]"
Nc1c(C(=O)c2ccccc2)sc2nsc(SCCN3CCCC3)c12,cell number change,,4.18%
same,AC50,[1],"20.6 µM [falling, single point]"
COc1ccccc1/C=C(/CC(=O)NCc1ccc2c(c1)OCO2)c1nc2ccccc2s1,cell number change,,1.96%
same,AC50,[1],"0.0651 µM [rising, full curve, poor fit]"
Cc1cc(Oc2ccc(=O)n(C)n2)nc(SCC(N)=O)n1,cell number change,,12.9%
O=C(CCC1CCCN(C(=O)CCCc2ccccc2)C1)N1CCN(c2ccccn2)CC1 (configuration not stated),cell number change,,-5.68%
O=C(NCCCN1CCCC1=O)C1CCN(S(=O)(=O)N2CCOCC2)CC1,cell number change,,-75.8%
same,AC50,[2],"25.9 µM [falling, single point]"
c1ccc2c(c1)nc(Nc1ccc3c(c1)OCO3)c1nnnn12,cell number change,,152%
same,AC50,[2],"0.58 µM [rising, full curve]"
same,AC50,[1],"1.46 µM [rising, full curve]"
CN(C)C(=O)C1Cc2ccccc2CN1S(=O)(=O)c1ccc(F)cc1 (configuration not stated),cell number change,,18.4%
COC(=O)CSc1nc2ccc(N)cc2s1,AC50,[1],"6.51 µM [falling, single point]"
CC(C)(C)c1cc[n+](-c2[nH]c(=O)sc2/C=N/N=C(\[O-])c2ccccc2)cc1,cell number change,,21%
same,AC50,[1],"29.1 µM [rising, single point]"
CC(C)SCc1nc2ccccc2[nH]1,cell number change,,32.3%
same,AC50,[2],"29.1 µM [rising, partial curve]"
same,AC50,[1],"0.651 µM [rising, full curve, poor fit]"
O=C(COC(=O)c1n[nH]c2ccccc12)c1cc(F)ccc1F,cell number change,,-25.1%
same,AC50,[2],"3.26 µM [falling, single point]"
same,AC50,[1],"2.91 µM [falling, partial curve, poor fit]"
COc1ccc2c(Cl)c(-c3nnc(SCC(N)=O)n3C)sc2c1,cell number change,,-77.1%
same,AC50,[2],"7.31 µM [falling, partial curve]"
same,AC50,[1],"2.31 µM [falling, partial curve]"
CC(C)CN(C(=O)CN1C(=O)NC2(CCc3ccccc32)C1=O)C1CCS(=O)(=O)C1 (configuration not stated),cell number change,,-28.6%
same,AC50,[2],"0.00461 µM [falling, full curve, poor fit]"
same,AC50,[1],"0.00461 µM [falling, full curve, poor fit]"
Cc1ccc(C)c(NC(=S)N2CCC(NC(=O)c3ccccc3)CC2)c1,cell number change,,21.2%
CCOc1ccc(OCCCCN2CCCC2)cc1,cell number change,,-6.28%
same,AC50,[1],"0.0517 µM [falling, full curve, poor fit]"
COc1ccc(CCN(Cc2cc3cc(C)ccc3[nH]c2=O)C(=O)N2CCCC2)cc1OC,cell number change,,-7.41%
same,AC50,[1],"4.61 µM [rising, partial curve, poor fit]"
CC(C)(C)c1ccc(OCCON2C(=O)CCC2=O)c(Cl)c1,cell number change,,-108%
COc1ccccc1C(=O)NCC(=O)N/N=C/c1cc(Br)ccc1OCc1ccccc1,cell number change,,-17.2%
same,AC50,[2],"6.51 µM [rising, partial curve, poor fit]"
O=C(N/N=C/c1ccc(Cl)cc1Cl)c1ccncc1,cell number change,,-5.77%
same,AC50,[1],"16.4 µM [rising, single point]"
CCCC(C)c1nnc(NC(=O)C(=O)OCC)s1 (configuration not stated),cell number change,,27.9%
same,AC50,[1],"25.1 µM [rising, single point]"
CCC(C)NC(=O)COc1ccc(OCc2ccccc2)cc1 (configuration not stated),cell number change,,17.5%
O=C(NC1CCCC1)c1ccc(COCC(F)(F)F)o1,cell number change,,4.84%
same,AC50,[1],"7.31 µM [falling, partial curve]"
Cc1ccccc1C=O,cell number change,,-37.4%
same,AC50,[2],"25.9 µM [falling, single point]"
same,AC50,[1],"4.61 µM [falling, single point]"
Oc1ccc(C[C@H]2CNCCN2CCc2cc(C(F)(F)F)cc(C(F)(F)F)c2)cc1,cell number change,,7.94%
same,AC50,[1],"14.6 µM [rising, single point]"
CCOc1cc(/C=N/NC(=O)c2nnn(-c3nonc3N)c2C)ccc1OCc1ccc(F)cc1,cell number change,,2.36%
same,AC50,[1],"0.116 µM [rising, full curve, poor fit]"

# 7 entries from above, with tabs.
structure (smiles)	measurement	setting	value
Cc1ccccc1C(=O)NNC(=O)/C=C/c1ccccc1	AC50	[2]	0.0291 µM [rising, full curve, poor fit]
O=C(CCCN1C(=O)[C@H]2CC=CC[C@H]2C1=O)NCc1nc(-c2ccc(Cl)cc2)no1	cell number change		12.5%
Nc1c(C(=O)c2ccccc2)sc2nsc(SCCN3CCCC3)c12	AC50	[1]	20.6 µM [falling, single point]
Cc1cc(Oc2ccc(=O)n(C)n2)nc(SCC(N)=O)n1	cell number change		12.9%
O=C(NCCCN1CCCC1=O)C1CCN(S(=O)(=O)N2CCOCC2)CC1	AC50	[2]	25.9 µM [falling, single point]
c1ccc2c(c1)nc(Nc1ccc3c(c1)OCO3)c1nnnn12	cell number change		152%
Cc1ccccc1C=O	AC50	[2]	25.9 µM [falling, single point]
